PubChem BioAssay AID602196 | INSERM | 2012

Test: 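Genes whose knock-down alters cisplatin killing of lung cancer cells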
System: human A549 lung cancer cells
Reagent: siRNA pair against human genes
Duration: 48 h transfection before cisplatin; time from cisplatin to read-out not stated
Treatment: cisplatin at a dose killing half of control-siRNA cells; exact dose and duration not given
Measurement: 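Cisplatin cell death as a shift from the 50% death seen with control siRNA; siRNAs toxic or growth-blocking alone scored 0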
Reading the numbers: two-siRNA summed score (-2 to +2): higher = both siRNAs protect from cisplatin killing; -2 means both sensitise; mean protection from cisplatin (shift in death) and protection from cisplatin (shift in death), siRNA C: higher = protection from cisplatin killing
Call rule: 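siRNAs harmful alone (LDH or WST-1) get 0; others get +1 for less and -1 for more cisplatin killing; genes are active when the two siRNAs give the same sign, summing to ±2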
Calls: active = both siRNAs shift cisplatin killing the same way; inactive = no consistent shift, or siRNA harmful alone
Here is an unselected part of about 23,000 deposited reagents. In the full data, 455 (2%) are marked active. 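Active includes both protection and sensitisation; some change values fall well beyond the stated -50 to +50 range.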 Entries without a mark were called inactive. Further read-outs or replicates are left out here. Not given: the amount of reagent.

The opening 3 entries, to show the layout:
Target gene,two-siRNA summed score (-2 to +2),mean protection from cisplatin (shift in death) (%),"protection from cisplatin (shift in death), siRNA C (%)"
LOC134541,0,12.4,14.1
LOC284293,0,-4.8,-16.4
RRP9,0,12.6,36.3

Results, repeating the preview:
Target gene,two-siRNA summed score (-2 to +2),mean protection from cisplatin (shift in death) (%),"protection from cisplatin (shift in death), siRNA C (%)"
LOC134541,0,12.4,14.1
LOC284293,0,-4.8,-16.4
RRP9,0,12.6,36.3
DOHH,1,1.8,12
FAM43A,0,7.9,4.7
AK3,-1,-1.8,9.1
TOLLIP,-1,-18.3,-14
LOC441900,1,25,15
ZNF614,0,-12.5,-16.8
AGTR1,1,8.7,-2.5
TOMM40,-1,-3.5,5.8
UBQLNL,-1,-0.7,16.1
RAB11FIP3,0,12.8,4.3
LOC441310,1,17.8,26.8
PCDHGA2,1,7.7,11.9
TAS2R39,1,10.7,2.3
RPL31,0,33,34.2
TUBGCP2,-1,-5.4,-20.8
LOC442590,1,11.7,9.9
DNAI3,0,-3.8,7.6
ZNF451,1,14.9,8.1
LOC441117,1,7.7,-1.2
ELOA2,0,-0.4,11.6
HILPDA,0,-0.5,-2.5
GPD2,0,-5.5,2
PPWD1,0,8.4,15.3
LOC440086,0,23.7,25.3
LOC127099,0,8.4,10.2
LRRN4CL,0,-8.8,-10.7
ZNF35,1,7.8,6
HSFX1,0,-10.7,-13.1
EIF3C,0,3.6,6.8
CXCL16,1,-12.2,27.2
PCGF5,0,-3,-3.6
SRRM4,0,3,2.2
PLEKHO2,0,-6.8,-14.1
LOC389689,0,13.1,20.5
SRRM2,0,6.5,5.9
ANKRA2,0,8.4,8.6
PBX3,0,1.3,5.9
PPIAP33,0,1.9,3.7
CALHM1,0,4.7,16.4
CPT2,-1,-9.5,-14.9
LOC440230,1,12.7,6.9
GAK,0,5.7,-2.4
NXF5,0,10.6,7
LOC388481,0,16.5,22.7
UCP2,0,-2.4,-10.1
PPIAP59,1,9.4,20.8
CCDC73,0,6.2,20.4
UPK1B,0,6.5,0.9
LOC391783,0,4.1,7.2
ZNF648,0,7.2,9.9
ITGB1,0,1.6,-0.8
LOC441435,0,12.9,10.7
DET1,0,0.1,-13.2
FHL2,0,9,12.1
LOC401613,1,13.7,17.7
REV3L,-1,-9.6,-3.2
ABTB1,0,2.4,3
CCKAR,0,1.8,-0.7
SENP5,0,2.1,9.1
ZNF774,-1,-1.8,9.5
REM1,0,-2,-2.2
ECHS1,0,-3.3,0.9
FLJ46365 (retired record),0,-2.3,-18.1
LOC442102,1,11.5,5.7
AMIGO2,1,10.2,24.1
FGF16,0,-6.6,-7.1
KIAA0794,-1,-1.9,15.9
CAPN3,-1,-11.6,-29.5
LPIN1,0,4.9,5.4
ZNF646,1,11.1,-5.5
